Results deposited as PubChem BioAssay AID720505 (Drosophila RNAi Screening Center, 2013)
The deposit covers about 20,000 reagents; below is an unselected part of those that have a named target and a result. Over the whole deposit, about 2,100 (10%) are marked active. 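Raw plate signals without normalisation; calls rest on control-based scores that were not deposited; replicate 2 separates called from uncalled poorly.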 A plus sign joins genes that one reagent is predicted to hit. Reagent sequences are not shown. Not stated in the record: the amount of reagent, the time to read-out.

Assay: 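Fly regulators or components of the CRAC channel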 (primary screen)
System: Drosophila S2R+ cells
Knock-down reagent: long dsRNA against Drosophila genes
Conditions: thapsigargin (2 µM) in calcium-free buffer to empty internal stores, then 2 mM calcium added back
Measurement: 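Stores emptied by 2 µM thapsigargin without calcium, then 2 mM calcium re-added; fluo-4 fluorescence followed by FLIPR in 384-well plates, per-well averaged endpoint, raw; two screen passes, some wells retested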
Scale: calcium signal and retest calcium signal: higher = more calcium entry after store depletion
Active means: 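Knock-downs counted as hits when calcium entry dropped relative to STIM1 positive and Rho1 negative controls present on each plate; roughly 1500 genes called, with reductions of differing size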
Calls: active = called as lowering calcium entry; inactive = not called

| gene | dsRNA | calcium signal, replicate 1 | calcium signal, replicate 2 | retest calcium signal, replicate 1 | retest calcium signal, replicate 2 | outcome |
| --- | --- | --- | --- | --- | --- | --- |
| CG2875 (GeneID 31326) | DRSC18231 | 114 | 168 | – | – | inactive |
| CG17010 (GeneID 34650) | DRSC02559 | 93.8 | 141 | – | – | inactive |
| tld (GeneID 42945) | DRSC17084 | 259 | 121 | – | – | inactive |
| Rtnl2 (GeneID 40903) | DRSC12609 | 130 | 133 | – | – | inactive |
| Rtnl2 (GeneID 40903) | DRSC21655 | 155 | 99.2 | – | – | inactive |
| CG15404 (GeneID 33537) | DRSC00418 | 136 | 99.7 | – | – | inactive |
| CG13066 (GeneID 50270) | DRSC09949 | 122 | 160 | – | – | inactive |
| CG15425 (GeneID 33630) | DRSC00440 | 92.3 | 103 | – | – | inactive |
| nac (GeneID 40981) | DRSC16520 | 69.4 | 191 | – | – | active |
| CG5897 (GeneID 39346) | DRSC10555 | 64.4 | 55 | – | – | active |
| Surf4 (GeneID 41864) | DRSC16875 | 154 | 199 | – | – | inactive |
| Cerk (GeneID 40640) | DRSC12285 | 92.2 | 104 | – | – | inactive |
| dgt5 (GeneID 36364) | DRSC07280 | 204 | 161 | – | – | inactive |
| CG17239 (GeneID 59224) | DRSC00492 | 160 | 162 | – | – | inactive |
| CG18557 (GeneID 33483) | DRSC00524 | 218 | 107 | – | – | inactive |
| Ass + CG31286 | DRSC12493 | 112 | 156 | – | – | inactive |
| Pino (GeneID 33288) | DRSC00038 | 112 | 197 | – | – | inactive |
| Pino (GeneID 33288) | DRSC00662 | 144 | 266 | – | – | inactive |
| CG11722 (GeneID 41227) | DRSC14358 | 62.9 | 71.3 | – | – | active |
| CG13698 (GeneID 40000) | DRSC10047 | 110 | 130 | – | – | inactive |

Just “calcium signal, replicate 1”, for 2 of the entries above:
CG18557 (GeneID 33483) [DRSC00524]	218
Ass + CG31286 [DRSC12493]	112

Further records:
| gene | dsRNA | calcium signal, replicate 1 | calcium signal, replicate 2 | retest calcium signal, replicate 1 | retest calcium signal, replicate 2 | outcome |
| --- | --- | --- | --- | --- | --- | --- |
| Cap-D2 (GeneID 43491) | DRSC15401 | 71.8 | 124 | – | – | inactive |
| lncRNA:CR32160 (GeneID 12797918) | DRSC22904 | 151 | 197 | – | – | inactive |
| Pcmt (GeneID 40668) | DRSC12363 | 37.8 | 111 | – | – | active |
| MetRS (GeneID 37177) | DRSC22533 | 100 | 79.2 | – | – | inactive |
| zye (GeneID 40255) | DRSC11784 | 79 | 133 | – | – | inactive |
| Cpr47Eb (GeneID 36189) | DRSC06345 | 91.1 | 134 | – | – | inactive |
| Lrrk (GeneID 42447) | DRSC15816 | 203 | 128 | 7131 | 155 | inactive |
| Lrrk (GeneID 42447) | DRSC21971 | 99.6 | 138 | – | – | inactive |
| dyw (GeneID 31252) | DRSC18228 | 123 | 150 | – | – | inactive |
| CG7990 (GeneID 32909) | DRSC19296 | 66.3 | 88.9 | – | – | active |
| CG7990 (GeneID 32909) | DRSC20069 | 147 | 123 | – | – | inactive |
| CG7990 (GeneID 32909) | DRSC23195 | 110 | 150 | – | – | inactive |
| RpL7 (GeneID 34352) | DRSC03417 | 99.7 | 96 | – | – | inactive |
| CG31559 (GeneID 40749) | DRSC12172 | 115 | 152 | – | – | inactive |
| CG31559 (GeneID 40749) | DRSC12270 | 92.1 | 138 | – | – | inactive |
| BBS1 (GeneID 38780) | DRSC10196 | 97.1 | 122 | – | – | inactive |
| pim (GeneID 34404) | DRSC03591 | 72.4 | 86.5 | – | – | inactive |
| CG12910 (GeneID 36082) | DRSC06225 | 164 | 165 | – | – | inactive |
| Gnmt (GeneID 41561) | DRSC15987 | 139 | 124 | – | – | inactive |
| Dred (GeneID 40124) | DRSC11057 | 74.5 | 162 | – | – | inactive |
| Dred (GeneID 40124) | DRSC11059 | 97.1 | 143 | – | – | inactive |
| eya (GeneID 33916) | DRSC03510 | 116 | 272 | – | – | inactive |
| CG31954 (GeneID 33572) | DRSC00580 | 133 | 287 | – | – | inactive |
| beat-Vc (GeneID 41575) | DRSC12927 | – | – | – | – | active |
| beat-Vc (GeneID 41575) | DRSC14849 | 150 | 72.9 | – | – | inactive |
| MED28 (GeneID 43079) | DRSC15721 | 239 | 114 | – | – | inactive |
| Tfb1 (GeneID 36598) | DRSC07082 | 151 | 148 | – | – | inactive |
| CG5276 (GeneID 41373) | DRSC15759 | 126 | 133 | – | – | inactive |
| Upf1 (GeneID 32153) | DRSC19667 | 121 | 145 | – | – | inactive |
| CG32834 (GeneID 318238) | DRSC21929 | 63.4 | 217 | – | – | inactive |
| Chpf (GeneID 32259) | DRSC19491 | 87.4 | 99.7 | – | – | inactive |
| Chpf (GeneID 32259) | DRSC19893 | 195 | 131 | – | – | inactive |
| gfzf (GeneID 40858) | DRSC12506 | 86.9 | 110 | – | – | inactive |
| gfzf (GeneID 40858) | DRSC21874 | 42.4 | 107 | – | – | active |
| Sap47 (GeneID 41938) | DRSC16850 | 84.2 | 156 | – | – | inactive |
| Ugt49B2 (GeneID 42538) | DRSC16049 | 132 | 128 | – | – | inactive |
